{
  "sequences": {"note": "The chains behind the UniProt entries cited, without tags or fusion partners.", "UniProt P23526": "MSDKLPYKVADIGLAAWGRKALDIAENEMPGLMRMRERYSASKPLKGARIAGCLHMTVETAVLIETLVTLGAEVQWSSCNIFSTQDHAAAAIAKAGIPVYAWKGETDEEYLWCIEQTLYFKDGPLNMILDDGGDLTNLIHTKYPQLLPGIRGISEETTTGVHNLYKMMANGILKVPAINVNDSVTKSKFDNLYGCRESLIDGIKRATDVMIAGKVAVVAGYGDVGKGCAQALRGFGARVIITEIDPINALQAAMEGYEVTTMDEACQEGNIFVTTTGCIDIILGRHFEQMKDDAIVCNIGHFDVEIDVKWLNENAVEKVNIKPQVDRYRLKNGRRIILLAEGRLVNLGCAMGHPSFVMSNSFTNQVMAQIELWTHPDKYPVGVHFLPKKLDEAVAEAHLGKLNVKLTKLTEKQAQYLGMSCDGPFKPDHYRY", "UniProt Q96HN2": "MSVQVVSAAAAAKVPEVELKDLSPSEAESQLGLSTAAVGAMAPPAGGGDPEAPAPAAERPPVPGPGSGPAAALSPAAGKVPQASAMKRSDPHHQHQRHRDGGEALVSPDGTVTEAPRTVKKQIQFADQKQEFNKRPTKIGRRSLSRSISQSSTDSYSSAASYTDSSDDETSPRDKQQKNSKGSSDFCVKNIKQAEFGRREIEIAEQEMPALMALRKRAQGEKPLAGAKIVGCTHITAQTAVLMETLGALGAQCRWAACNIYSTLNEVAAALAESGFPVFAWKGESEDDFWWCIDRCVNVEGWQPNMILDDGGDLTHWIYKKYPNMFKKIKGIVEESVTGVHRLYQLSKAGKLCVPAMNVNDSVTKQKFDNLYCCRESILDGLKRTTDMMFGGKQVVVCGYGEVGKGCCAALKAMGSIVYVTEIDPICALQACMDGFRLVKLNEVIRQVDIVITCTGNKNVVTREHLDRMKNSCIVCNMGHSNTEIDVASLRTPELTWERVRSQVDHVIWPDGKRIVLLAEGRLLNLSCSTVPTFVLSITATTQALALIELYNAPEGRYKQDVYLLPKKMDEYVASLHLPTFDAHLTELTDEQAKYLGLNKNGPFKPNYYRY"},
  "source": "paper PMC7060199",
  "target": "SAHH-HA (UniProt P23526)",
  "experiment": "co-IP; HEK293T stably expressing AHCYL-Flag and SAHH-HA, control, DJ-1-flag overexpression or DJ-1 KD; anti-HA magnetic beads, 4 h at 4 C; immunoblot with anti-Flag and anti-HA",
  "note": "Results are given in words; binding and its absence hold for the method and conditions named. Binding seen in cells or lysates may run through a third protein. Some binding calls cover weakened binding; strength is not graded here.",
  "data": [
    {"substance": "AHCYL2-Flag (from UniProt Q96HN2 1-611)", "values": [
      {"measurement": "binding", "value": "binds"}
    ]}
  ]
}
